Percent effect of library compounds

By UniProt entry, the sequences of proteins in these tests, tags left out. Residues count along the entry.
UniProt P9WNZ1, whole entry: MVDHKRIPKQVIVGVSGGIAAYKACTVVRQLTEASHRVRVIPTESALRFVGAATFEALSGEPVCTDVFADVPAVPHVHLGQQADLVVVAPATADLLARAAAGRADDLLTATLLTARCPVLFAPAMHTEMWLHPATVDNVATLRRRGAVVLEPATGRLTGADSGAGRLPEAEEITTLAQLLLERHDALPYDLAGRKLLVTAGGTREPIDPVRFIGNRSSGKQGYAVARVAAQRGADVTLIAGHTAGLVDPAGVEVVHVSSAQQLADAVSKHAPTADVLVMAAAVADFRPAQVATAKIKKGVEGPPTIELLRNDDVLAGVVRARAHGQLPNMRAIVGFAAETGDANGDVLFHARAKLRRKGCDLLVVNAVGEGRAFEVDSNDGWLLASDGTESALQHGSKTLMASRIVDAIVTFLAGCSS
UniProt I6X8D2, whole entry: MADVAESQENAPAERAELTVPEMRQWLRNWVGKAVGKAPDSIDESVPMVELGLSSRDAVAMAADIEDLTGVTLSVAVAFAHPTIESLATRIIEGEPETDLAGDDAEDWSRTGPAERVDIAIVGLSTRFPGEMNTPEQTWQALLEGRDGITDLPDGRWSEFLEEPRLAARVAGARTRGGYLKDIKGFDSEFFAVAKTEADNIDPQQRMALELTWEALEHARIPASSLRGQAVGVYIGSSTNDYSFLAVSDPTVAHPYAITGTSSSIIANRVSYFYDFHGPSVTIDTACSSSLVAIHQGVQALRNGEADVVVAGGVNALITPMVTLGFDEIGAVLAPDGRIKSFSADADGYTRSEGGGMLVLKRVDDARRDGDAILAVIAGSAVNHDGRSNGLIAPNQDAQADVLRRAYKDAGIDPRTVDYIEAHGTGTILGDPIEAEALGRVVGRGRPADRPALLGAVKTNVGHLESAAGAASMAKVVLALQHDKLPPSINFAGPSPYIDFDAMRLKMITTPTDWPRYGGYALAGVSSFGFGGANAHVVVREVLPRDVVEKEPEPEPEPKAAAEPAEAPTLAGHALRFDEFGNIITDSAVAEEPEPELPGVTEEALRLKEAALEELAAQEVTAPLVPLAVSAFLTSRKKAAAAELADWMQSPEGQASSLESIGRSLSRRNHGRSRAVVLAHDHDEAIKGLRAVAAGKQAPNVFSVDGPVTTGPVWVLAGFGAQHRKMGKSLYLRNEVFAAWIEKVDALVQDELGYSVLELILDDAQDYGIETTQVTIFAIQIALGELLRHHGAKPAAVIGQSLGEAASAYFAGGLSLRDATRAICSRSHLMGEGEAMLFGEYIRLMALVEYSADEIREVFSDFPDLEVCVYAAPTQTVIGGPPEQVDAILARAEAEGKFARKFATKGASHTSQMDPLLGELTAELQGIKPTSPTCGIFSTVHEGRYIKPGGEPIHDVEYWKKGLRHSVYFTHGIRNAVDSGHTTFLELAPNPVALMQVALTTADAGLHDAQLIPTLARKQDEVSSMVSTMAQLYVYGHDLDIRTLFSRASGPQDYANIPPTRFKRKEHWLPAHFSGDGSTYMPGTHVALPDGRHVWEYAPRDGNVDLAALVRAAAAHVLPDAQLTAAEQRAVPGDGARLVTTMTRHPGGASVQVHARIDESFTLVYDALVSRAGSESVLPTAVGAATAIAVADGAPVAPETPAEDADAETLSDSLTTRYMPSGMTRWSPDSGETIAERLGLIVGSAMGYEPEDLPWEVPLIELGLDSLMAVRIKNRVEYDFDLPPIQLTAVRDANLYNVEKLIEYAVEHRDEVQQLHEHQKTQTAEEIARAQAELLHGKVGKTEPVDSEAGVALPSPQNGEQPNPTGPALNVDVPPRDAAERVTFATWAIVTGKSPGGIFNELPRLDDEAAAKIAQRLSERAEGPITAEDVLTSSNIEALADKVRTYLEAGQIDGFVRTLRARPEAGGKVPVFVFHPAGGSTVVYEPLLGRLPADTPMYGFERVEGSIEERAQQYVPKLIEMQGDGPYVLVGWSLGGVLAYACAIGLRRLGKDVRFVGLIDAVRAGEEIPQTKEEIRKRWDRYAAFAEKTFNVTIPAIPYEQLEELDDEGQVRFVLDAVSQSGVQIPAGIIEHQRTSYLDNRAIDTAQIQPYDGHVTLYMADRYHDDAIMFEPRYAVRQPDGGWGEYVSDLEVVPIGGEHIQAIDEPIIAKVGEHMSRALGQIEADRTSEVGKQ
UniProt P9WPC5, whole entry: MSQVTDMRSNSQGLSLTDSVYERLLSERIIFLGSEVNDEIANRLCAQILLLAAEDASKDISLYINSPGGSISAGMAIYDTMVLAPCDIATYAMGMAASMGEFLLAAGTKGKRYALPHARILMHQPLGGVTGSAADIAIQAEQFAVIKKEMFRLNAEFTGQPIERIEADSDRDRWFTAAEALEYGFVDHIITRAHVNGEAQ
UniProt P9WPC3, whole entry partner: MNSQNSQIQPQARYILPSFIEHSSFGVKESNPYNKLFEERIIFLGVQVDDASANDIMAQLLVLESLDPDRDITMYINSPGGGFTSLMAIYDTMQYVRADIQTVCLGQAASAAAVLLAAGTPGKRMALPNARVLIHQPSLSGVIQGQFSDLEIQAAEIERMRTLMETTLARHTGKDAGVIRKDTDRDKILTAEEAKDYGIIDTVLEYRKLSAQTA
UniProt Q4DA54, 1-478: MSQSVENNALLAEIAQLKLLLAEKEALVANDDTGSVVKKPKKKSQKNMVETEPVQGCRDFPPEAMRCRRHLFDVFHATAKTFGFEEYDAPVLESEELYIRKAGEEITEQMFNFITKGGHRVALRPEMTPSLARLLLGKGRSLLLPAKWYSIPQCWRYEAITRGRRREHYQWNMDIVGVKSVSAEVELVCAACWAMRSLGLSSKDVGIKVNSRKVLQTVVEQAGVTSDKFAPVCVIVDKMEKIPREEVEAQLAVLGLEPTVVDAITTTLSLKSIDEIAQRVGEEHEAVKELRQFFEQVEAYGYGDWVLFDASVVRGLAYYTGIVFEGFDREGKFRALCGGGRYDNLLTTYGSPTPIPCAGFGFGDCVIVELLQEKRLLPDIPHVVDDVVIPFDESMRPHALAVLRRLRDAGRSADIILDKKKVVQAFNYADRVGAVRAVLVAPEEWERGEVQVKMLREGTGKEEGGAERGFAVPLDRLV

The values are deposited in ChEMBL (CHEMBL3988442, “University of Dundee, Small-Polar-MMV Screening Library” (2021)).

Results are given as percent effect.
How 0% and 100% were set is not recorded. Most values in the screen are low, and negative values occur.
Compounds were drawn at random from those tested, without regard to their results.
Two or more numbers in one place are separate tests of the same structure; such repeats can differ widely.
A dash means the value is not listed here; it may have been measured.

A: 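Enzyme assay of CoaBC with a phosphate dye (Biomol Green) read at 650 nm. Target: Coenzyme A biosynthesis protein CoaBC, Mycobacterium tuberculosis (UniProt P9WNZ1). Concentration: 30 µM. Direction is inferred from only a few compounds that gave an IC50; most scored high, so higher reads as stronger inhibition. Most strong results did not repeat in a second test. About 67,000 compounds were tested under these conditions; 0.06% (about 40) showed 50% or more at least once.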
B: 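Cell assay of Leishmania donovani living inside macrophages; the read-out is not stated. Compounds at 30 µM. The record gives no direction; compounds that gave an IC50 in retests scored well above the rest, so higher reads as stronger inhibition. Of about 69,000 compounds tested this way, about 1,000 (1.5%) reached 50% or more in at least one test.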
C: 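Enzyme assay of the thioesterase domain of polyketide synthase 13; the read-out is not stated. Target: Polyketide synthase Pks13, Mycobacterium tuberculosis (UniProt I6X8D2). Tested at 30 µM. Higher reads as stronger inhibition (inferred from which compounds were picked for retests). Size under these conditions: about 67,000 compounds, about 300 of them at 50% or above in at least one test.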
D: 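ClpP1P2, Mycobacterium tuberculosis (UniProt P9WPC5 and UniProt P9WPC3). Protease assay of ClpP1P2, read by the AMC dye that it sets free. Compounds at 50 µM. Higher reads as stronger inhibition, judged from the few compounds that gave an IC50. Most other retested compounds had strongly negative values. Size under these conditions: about 69,000 compounds, about 10 of them at 50% or above in at least one test.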
E: 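Histidine-tRNA ligase, Trypanosoma cruzi CL Brener (UniProt Q4DA54). Enzyme assay of histidyl-tRNA synthetase; the read-out is not stated. Concentration: 30 µM. Higher reads as stronger inhibition (inferred: compounds with an IC50 in retests scored well above the rest). About 69,000 compounds were tested under these conditions; 0.045% (about 31) showed 50% or more at least once.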

Compound | A | B | C | D | E
CCNC(c1ccc(C(C)C)cc1)c1cccnc1 (stereo not shown) | 3.602% | 38.94% | -10.65% | 4.634% | 3.725%
Cc1cccc(CN2CCC3(CCCN(C(=O)CN(C)C)C3)C2=O)n1 (stereo not shown) | -5.263% | 36.66% and -1.028% | -32.63% | -2.033% | 4.301%
Cc1cc(CC(=O)N2CCN(C)[C@@H]3CS(=O)(=O)C[C@@H]32)ccc1F | -3.353% | - | -20.53% | -2.811% | 6.349%
Cc1cc(=O)[nH]c(=O)n1-c1cccc(Cl)c1Cl | 0.3632% | 9.983% | -2.854% | -2.994% | 3.96%
CCn1nnc2c1C(COCCN(C)C)CN(Cc1ccco1)C2 (stereo not shown) | -1.463% | - | -32.68% | -5.251% | 2.222%
CN(C)Cc1cnc(C2CCN(C(=O)c3ccc(F)cc3)C2)[nH]1 (stereo not shown) | -6.165% | 14.19% | 12.51% | -11.83% | 8.333%
Cc1cc(C(=O)N2C[C@@H]3COC[C@]3(CN(C)C)C2)c(C)o1 | - | - | -27.52% | 13.11% | -62.58%
CC(C)NC(=O)CC(C)NCc1cc(Cl)ccc1F (stereo not shown) | 5.433% | 15.15% | -27.76% | -6.702% | 2.809%
CC(=O)NC[C@@H]1C=C(C)[C@H](CC(=O)NCc2cccnc2)C[C@H]1C(C)C | 8.804% | 3.245% | -25% | 1.643% | 11.88%
CCc1noc(CN2CCN(C(=O)c3ccccc3F)CC2)n1 | 2.632% | -21.26% | 1.226% | 14.87% | -1.163%
Cl.Cn1ncc2c1CCCC2NCc1cccc(C(F)(F)F)c1 (stereo not shown) | - | 14.2% | - | - | -
COC(C(=O)NC1CC1)c1ccccc1 (stereo not shown) | 7.514% | -8.435% | -6.688% | 13.31% | 2.632%
Cc1cc(CN2CCN(C(=O)NCc3c(C)noc3C)CC2)on1 | 1.956% | 48.65% | -10.23% | -2.018% | 0.578%
CSC(CNS(=O)(=O)c1cnn(C)c1)c1cccc(Cl)c1 (stereo not shown) | 10.02% | 0.06932% | - | 2.294% | 5.172%
Cc1ccc(Cl)cc1NC(=O)C1CC(=O)N(Cc2ccccn2)C1 (stereo not shown) | 17.05% | -20.85% | -5.878% | -6.178% | -4.167%
[H][C@@]12COC[C@]1([H])[C@H](NC(=O)C1CCC1)CN2Cc1cccc(C)n1 | - | 22.71% and 8.772% | - | - | -
O=C(COCc1ccccc1Cl)N1CCN(c2cnccn2)CC1 | 5.447% | 2.857% | 25.76% | 3.135% | 0%
CCc1ccc(CNC2(c3ccc(F)cc3)CCOCC2)o1 | 2.621% | -9.458% | -5.429% | -3.301% | 3.261%
COc1ncccc1CN1C[C@@H]2COC[C@]2(CNC(=O)c2ccno2)C1 | 2.005% | - | 7.228% | -19.82% | -7.317%
[H][C@@]12CCN(C(=O)N(C)C)[C@]1([H])CC[C@@H](C(=O)NC)O2 | - | -6.489% | - | - | -
O=C(NCc1nccn1CCc1ccccc1)NCC1(O)CCC1 | -1.272% | 14.31% | -12.4% | -17.45% | 7.018%
N#Cc1cccc(OCCN2CCn3c(nnc3C3CC3)C2)c1 | 1.567% | 26.18% | -4.938% | -23.48% | 3.39%
Cc1cc(C)n(CC2(CNC(=O)C(c3ccccc3F)N(C)C)CC2)n1 (stereo not shown) | - | -5.194% | -19.18% | -3.799% | 4.459%
O=C(c1ccc2c(c1)OCCCO2)N1CCCCC1C1OCCO1 (stereo not shown) | -0.1965% | 7.952% | -10.93% | -3.461% | 6.897%
CN(C(=O)CNCCn1cccn1)C1(C#N)CCCCC1 | 0.4831% | 17.91% | -9.248% | -0.1988% | 9.677%
CS(=O)(=O)CCSCc1cc(F)cc2cccnc12 | 3.165% | -62.61% | 3.29% | -3.321% | 1.22%
CS(=O)(=O)N1CCCC12CCCN(C(=O)c1ccc3c(c1)OCO3)C2 (stereo not shown) | -4.206% | 13.37% | -29.17% | -8.085% | 4.348%
Cc1ccc(C2(CN(C)Cc3c(C)nn(C)c3C)CCNCC2)nc1 | -18.9% | 37.1% | -8.526% | 0.132% | 4%
Cl.Cl.FC(F)(F)c1cccc(-c2c[nH]c(C3CCCN3)n2)c1 (stereo not shown) | - | 20.24% | - | - | -
O=C(CCN1CCCCC1)Nc1c2c(cc3c1CCC3)CCC2 | 11.63% | - | -6.648% | 12.93% | 7.216%
Cc1ncsc1C(=O)N(C)Cc1ccncc1 | -0.7979% | -5.146% | -4.855% | 24.91% | 0.3802%
CNc1cc(C)nc(N2CCN(Cc3ccccc3)CC(O)C2)n1 (stereo not shown) | 9.127% | 32.51% | -0.9826% | 3.701% | 1.02%
O=C([C@H]1CCCO1)N1CCCC2(CCN(Cc3ccncc3)C2=O)C1 (stereo partly shown) | -9.506% | - | -5.276% | -1.773% | 0%
Oc1cccc(-c2cc(C3CCN(Cc4cncnc4)C3)ccn2)c1 (stereo not shown) | 7.323% | 18.2% | -19.01% | 2.585% | 13.81%
Cc1cc(F)ccc1-n1cc(O)c(C(=O)NCC[S+](C)[O-])n1 (stereo not shown) | 1.211% | 27.87% | 2.231% | 11.37% | 7%
COCCN1CC[C@H]2OCC[C@@H](C(=O)Nc3cccnc3)[C@@H]2C1 | 4.511% | - | 4.655% | -14.48% | 0%
CC(C)COc1cncc(NCC(O)c2ccco2)n1 (stereo not shown) | -10.44% | -4.687% | 32.65% | -6.212% | 7.447%
O=c1ccc(-n2ccnc2)nn1CCNS(=O)(=O)c1ccc(Br)cc1 | -14.16% | 2.725% and 3.488% | -6.909% | -3.781% | 4.124%
COc1cccc([C@@H]2N[C@H](c3nccs3)Cc3ccsc32)c1OC | -6.658% | 26.6% | 40.93% | -21.05% | 2.273%
CN(C)C1Cc2ccccc2N(S(=O)(=O)c2ccc(C#N)cc2)C1 (stereo not shown) | 2.689% | 12.15% | -4.571% | -15.5% | 1.031%
Cc1nc(C2CCN(S(=O)(=O)c3ccc(Cl)cc3)CC2)n[nH]1 | - | -8.587% | -16.29% | 0.756% | 4.459%
CCn1nc(C(C)C)cc1C(=O)NCc1nc2ccc(OC)cc2[nH]1 | 5.459% | 15.5% | -10.84% | -1.501% | 13.29%
O=C(O)C(F)(F)F.O=C(O)C(F)(F)F.[H][C@@]12OCCN(Cc3cc(C)on3)[C@@]1([H])CC[C@H]2OCc1csc(C)n1 | - | 29.97% | - | - | -

Repeated from the top, 5 entries:

Result for CCNC(c1ccc(C(C)C)cc1)c1cccnc1 (stereo not shown) was A: 3.602%; B: 38.94%; C: -10.65%; D: 4.634%; E: 3.725%.
Result for Cc1cccc(CN2CCC3(CCCN(C(=O)CN(C)C)C3)C2=O)n1 (stereo not shown) was A: -5.263%; B: 36.66% and -1.028%; C: -32.63%; D: -2.033%; E: 4.301%.
Result for Cc1cc(CC(=O)N2CCN(C)[C@@H]3CS(=O)(=O)C[C@@H]32)ccc1F was A: -3.353%; C: -20.53%; D: -2.811%; E: 6.349%.
Result for Cc1cc(=O)[nH]c(=O)n1-c1cccc(Cl)c1Cl was A: 0.3632%; B: 9.983%; C: -2.854%; D: -2.994%; E: 3.96%.
Result for CCn1nnc2c1C(COCCN(C)C)CN(Cc1ccco1)C2 (stereo not shown) was A: -1.463%; C: -32.68%; D: -5.251%; E: 2.222%.